Assay results as given in publication PMC9945352.
No constants are given. Whether binding was seen depends on the method and setting. Binding seen in cells or lysates may run through a third protein. Some binding calls cover weakened binding; strength is not graded here.

By UniProt entry, the sequences of proteins in these tests, tags left out.
UniProt Q9UBN7: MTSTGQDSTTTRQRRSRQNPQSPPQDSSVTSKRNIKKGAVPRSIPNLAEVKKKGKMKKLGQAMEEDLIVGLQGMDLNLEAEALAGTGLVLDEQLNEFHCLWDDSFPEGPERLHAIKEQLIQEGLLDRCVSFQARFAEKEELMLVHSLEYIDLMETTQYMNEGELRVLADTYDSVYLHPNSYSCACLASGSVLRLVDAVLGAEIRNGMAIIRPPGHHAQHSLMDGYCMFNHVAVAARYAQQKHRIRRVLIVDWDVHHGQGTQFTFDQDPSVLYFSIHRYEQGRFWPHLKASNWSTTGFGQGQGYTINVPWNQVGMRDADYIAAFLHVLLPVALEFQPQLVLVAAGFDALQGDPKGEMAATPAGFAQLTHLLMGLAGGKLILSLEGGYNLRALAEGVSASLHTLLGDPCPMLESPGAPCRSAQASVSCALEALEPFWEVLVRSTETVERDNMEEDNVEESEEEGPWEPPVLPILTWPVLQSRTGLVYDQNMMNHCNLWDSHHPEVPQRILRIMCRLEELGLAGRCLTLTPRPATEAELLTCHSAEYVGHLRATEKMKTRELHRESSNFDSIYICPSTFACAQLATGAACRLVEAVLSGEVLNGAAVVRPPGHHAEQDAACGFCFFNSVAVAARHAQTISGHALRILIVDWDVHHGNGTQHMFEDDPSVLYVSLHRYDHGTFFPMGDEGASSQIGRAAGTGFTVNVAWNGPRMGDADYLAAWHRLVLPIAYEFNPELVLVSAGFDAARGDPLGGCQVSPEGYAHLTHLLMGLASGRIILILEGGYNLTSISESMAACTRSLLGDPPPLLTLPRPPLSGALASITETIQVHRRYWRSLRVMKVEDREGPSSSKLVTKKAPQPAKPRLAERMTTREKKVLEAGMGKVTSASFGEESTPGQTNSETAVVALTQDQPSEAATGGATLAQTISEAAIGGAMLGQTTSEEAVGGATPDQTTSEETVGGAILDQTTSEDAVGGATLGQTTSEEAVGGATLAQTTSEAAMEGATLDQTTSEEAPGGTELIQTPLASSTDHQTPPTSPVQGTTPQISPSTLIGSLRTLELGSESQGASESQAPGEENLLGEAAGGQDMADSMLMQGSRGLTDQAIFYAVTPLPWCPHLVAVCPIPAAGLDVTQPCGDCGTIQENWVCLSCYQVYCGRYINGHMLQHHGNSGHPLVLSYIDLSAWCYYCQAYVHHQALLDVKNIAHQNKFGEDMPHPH

Biological target: T1, SMAR1 (human (endogenous in CAL62 and 8305C)) (UniProt Q8N9N5)
T1 sequence: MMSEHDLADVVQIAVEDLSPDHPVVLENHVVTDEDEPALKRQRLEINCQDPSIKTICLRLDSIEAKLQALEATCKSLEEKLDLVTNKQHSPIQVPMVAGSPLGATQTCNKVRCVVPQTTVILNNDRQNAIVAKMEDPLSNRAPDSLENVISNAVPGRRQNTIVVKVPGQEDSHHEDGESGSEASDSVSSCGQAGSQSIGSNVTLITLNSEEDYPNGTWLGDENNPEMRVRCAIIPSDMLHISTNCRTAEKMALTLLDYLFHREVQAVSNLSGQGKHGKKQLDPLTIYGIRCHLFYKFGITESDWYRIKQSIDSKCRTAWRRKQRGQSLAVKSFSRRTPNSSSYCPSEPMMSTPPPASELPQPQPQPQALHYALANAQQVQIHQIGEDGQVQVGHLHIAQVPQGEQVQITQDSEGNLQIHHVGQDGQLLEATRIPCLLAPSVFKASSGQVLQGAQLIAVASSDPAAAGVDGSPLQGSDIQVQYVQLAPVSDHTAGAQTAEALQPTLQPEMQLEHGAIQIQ
Test: co-IP; endogenous SMAR1 and HDAC6, co-IP with western blotting in shRBX1-CAL62 cells (RBX1 knock-down) and HA-RBX1-8305C cells (RBX1 overexpression)

- binding: binds
Substance: HDAC6 (from UniProt Q9UBN7 1-1215)
